Experimental data from the supplement of paper PMC6411743.
± gives the standard deviation of the averaged measurements. The entries are a selection whose mix differs from that of the whole data set.

Sequences of proteins named here, by UniProt entry; tags and fusion partners are left off. A change or cut given only in a name is not applied to a line headed by its entry.
UniProt Q9Y484: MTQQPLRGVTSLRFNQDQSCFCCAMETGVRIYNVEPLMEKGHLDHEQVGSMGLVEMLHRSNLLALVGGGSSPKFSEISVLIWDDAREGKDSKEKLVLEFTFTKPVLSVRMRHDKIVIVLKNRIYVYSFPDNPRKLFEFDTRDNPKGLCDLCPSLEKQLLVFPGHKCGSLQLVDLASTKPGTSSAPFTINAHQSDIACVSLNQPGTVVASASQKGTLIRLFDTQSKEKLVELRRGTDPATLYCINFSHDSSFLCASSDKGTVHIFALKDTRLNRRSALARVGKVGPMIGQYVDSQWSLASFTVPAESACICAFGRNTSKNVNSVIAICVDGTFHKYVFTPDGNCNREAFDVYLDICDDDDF
UniProt P20810: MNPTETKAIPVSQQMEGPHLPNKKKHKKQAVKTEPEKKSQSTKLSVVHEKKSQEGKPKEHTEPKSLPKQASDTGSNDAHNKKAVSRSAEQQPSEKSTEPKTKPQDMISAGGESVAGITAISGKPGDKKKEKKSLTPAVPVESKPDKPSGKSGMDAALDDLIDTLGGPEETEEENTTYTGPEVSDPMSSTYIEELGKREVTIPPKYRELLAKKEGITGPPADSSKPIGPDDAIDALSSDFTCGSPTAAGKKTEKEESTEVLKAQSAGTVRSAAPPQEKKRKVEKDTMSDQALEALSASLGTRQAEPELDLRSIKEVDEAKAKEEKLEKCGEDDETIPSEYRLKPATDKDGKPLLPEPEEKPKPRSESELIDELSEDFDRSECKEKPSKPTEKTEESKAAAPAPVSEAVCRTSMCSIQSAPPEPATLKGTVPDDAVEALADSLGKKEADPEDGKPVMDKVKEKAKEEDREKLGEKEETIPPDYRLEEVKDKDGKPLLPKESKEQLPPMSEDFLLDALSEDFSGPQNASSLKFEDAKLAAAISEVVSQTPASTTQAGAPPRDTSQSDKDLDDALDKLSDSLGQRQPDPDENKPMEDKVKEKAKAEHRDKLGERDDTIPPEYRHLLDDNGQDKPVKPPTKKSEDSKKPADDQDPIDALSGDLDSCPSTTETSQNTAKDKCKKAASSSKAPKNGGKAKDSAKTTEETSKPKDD
UniProt Q96MY1: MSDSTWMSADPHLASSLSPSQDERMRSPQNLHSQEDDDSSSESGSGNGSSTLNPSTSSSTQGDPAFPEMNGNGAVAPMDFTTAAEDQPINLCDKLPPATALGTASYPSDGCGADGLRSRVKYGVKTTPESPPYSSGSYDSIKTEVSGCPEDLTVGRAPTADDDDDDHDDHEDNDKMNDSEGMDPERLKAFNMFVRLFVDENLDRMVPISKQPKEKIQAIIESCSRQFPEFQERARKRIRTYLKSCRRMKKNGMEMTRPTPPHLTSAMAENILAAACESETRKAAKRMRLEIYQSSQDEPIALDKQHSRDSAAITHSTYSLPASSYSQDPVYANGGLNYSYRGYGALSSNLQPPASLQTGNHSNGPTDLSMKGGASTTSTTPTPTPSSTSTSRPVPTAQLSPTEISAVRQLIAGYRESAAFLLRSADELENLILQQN
UniProt O60610, whole entry: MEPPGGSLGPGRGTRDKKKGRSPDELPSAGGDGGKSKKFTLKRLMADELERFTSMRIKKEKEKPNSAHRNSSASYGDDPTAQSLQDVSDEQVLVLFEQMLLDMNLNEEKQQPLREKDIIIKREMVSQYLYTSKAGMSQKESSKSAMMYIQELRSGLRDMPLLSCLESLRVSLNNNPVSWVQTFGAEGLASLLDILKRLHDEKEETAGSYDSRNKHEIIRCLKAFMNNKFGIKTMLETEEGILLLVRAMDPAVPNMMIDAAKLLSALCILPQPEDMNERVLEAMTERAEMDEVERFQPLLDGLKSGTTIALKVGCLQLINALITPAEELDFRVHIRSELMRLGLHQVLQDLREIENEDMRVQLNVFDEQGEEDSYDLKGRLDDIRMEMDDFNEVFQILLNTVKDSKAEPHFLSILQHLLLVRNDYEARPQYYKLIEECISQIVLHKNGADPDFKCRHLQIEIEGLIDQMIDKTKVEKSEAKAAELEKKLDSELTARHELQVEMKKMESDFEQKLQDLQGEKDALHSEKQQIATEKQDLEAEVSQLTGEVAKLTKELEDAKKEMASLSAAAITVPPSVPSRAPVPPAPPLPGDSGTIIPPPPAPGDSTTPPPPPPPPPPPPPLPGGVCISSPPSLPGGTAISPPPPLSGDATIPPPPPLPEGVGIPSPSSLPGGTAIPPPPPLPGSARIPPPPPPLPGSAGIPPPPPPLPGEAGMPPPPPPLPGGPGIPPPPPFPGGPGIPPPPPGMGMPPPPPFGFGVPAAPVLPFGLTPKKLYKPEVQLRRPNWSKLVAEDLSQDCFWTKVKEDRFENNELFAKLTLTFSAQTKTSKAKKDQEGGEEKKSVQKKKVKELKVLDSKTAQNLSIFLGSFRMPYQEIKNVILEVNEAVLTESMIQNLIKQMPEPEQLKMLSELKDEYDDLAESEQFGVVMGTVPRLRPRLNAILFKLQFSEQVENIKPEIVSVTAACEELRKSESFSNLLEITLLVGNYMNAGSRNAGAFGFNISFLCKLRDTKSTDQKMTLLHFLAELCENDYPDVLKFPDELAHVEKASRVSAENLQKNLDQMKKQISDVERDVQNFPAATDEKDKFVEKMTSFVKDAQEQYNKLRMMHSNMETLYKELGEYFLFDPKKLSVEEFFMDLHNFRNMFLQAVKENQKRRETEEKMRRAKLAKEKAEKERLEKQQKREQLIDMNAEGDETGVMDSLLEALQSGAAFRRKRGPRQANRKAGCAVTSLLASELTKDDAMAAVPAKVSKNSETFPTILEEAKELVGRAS
UniProt Q9NP73: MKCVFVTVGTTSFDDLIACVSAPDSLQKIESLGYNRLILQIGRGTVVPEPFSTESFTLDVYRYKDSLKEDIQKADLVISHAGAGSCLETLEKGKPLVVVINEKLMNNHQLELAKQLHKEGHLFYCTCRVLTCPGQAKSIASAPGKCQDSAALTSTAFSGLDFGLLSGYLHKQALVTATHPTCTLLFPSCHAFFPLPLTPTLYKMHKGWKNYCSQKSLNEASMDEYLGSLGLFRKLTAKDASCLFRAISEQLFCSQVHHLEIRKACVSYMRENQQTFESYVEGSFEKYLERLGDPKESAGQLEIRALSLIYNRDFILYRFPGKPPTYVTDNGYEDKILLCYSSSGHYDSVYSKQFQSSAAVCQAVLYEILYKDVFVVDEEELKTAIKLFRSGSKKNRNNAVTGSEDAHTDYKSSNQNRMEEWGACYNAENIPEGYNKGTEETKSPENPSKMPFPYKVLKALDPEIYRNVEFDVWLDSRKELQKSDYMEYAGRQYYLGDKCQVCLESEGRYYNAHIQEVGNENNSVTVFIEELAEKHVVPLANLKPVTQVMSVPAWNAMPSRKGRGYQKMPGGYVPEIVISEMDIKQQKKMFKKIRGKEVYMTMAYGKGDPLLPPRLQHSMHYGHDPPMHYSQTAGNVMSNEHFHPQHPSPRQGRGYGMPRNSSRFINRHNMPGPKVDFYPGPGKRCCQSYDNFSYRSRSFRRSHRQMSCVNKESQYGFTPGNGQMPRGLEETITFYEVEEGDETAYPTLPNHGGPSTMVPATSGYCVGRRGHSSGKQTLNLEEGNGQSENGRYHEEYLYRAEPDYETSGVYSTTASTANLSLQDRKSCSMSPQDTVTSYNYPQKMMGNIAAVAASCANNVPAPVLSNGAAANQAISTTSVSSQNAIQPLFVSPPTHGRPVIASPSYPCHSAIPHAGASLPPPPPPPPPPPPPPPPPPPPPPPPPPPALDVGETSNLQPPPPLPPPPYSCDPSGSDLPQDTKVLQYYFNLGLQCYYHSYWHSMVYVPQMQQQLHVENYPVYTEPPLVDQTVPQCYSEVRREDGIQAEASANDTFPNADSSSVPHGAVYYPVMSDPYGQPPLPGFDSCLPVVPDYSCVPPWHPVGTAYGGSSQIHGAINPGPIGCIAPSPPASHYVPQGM
UniProt Q14114: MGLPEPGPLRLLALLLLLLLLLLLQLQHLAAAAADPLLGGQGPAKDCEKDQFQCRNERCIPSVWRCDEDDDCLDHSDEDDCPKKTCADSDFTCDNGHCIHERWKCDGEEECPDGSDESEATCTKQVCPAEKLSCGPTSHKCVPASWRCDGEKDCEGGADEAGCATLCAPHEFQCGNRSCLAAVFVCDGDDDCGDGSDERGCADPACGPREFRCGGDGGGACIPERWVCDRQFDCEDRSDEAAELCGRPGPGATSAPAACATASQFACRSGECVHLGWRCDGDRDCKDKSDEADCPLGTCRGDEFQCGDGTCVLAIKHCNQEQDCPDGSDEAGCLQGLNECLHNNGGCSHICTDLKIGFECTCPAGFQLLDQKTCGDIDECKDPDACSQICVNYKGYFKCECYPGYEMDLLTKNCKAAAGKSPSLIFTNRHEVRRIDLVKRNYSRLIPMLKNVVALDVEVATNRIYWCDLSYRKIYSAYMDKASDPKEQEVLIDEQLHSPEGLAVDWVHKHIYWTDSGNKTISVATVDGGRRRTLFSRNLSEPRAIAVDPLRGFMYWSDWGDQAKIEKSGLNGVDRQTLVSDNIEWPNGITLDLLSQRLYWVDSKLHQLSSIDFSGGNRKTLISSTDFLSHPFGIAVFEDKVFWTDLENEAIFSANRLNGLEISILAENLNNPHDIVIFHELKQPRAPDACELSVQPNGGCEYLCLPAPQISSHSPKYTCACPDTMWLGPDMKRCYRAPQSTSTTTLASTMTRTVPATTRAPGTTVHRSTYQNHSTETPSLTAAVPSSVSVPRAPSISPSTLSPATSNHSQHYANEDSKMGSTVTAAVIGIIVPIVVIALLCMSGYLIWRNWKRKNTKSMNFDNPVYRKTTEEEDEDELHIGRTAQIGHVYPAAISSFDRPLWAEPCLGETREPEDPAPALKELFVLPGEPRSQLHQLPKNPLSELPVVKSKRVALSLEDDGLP
UniProt Q9Y2Y9: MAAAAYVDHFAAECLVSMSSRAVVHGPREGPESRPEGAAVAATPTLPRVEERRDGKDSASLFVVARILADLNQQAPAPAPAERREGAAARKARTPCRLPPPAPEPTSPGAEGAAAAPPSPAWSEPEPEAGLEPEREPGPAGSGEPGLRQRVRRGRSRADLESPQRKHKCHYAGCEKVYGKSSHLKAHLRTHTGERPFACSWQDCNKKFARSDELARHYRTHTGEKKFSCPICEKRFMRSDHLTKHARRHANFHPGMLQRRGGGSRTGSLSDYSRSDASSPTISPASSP
UniProt O43464: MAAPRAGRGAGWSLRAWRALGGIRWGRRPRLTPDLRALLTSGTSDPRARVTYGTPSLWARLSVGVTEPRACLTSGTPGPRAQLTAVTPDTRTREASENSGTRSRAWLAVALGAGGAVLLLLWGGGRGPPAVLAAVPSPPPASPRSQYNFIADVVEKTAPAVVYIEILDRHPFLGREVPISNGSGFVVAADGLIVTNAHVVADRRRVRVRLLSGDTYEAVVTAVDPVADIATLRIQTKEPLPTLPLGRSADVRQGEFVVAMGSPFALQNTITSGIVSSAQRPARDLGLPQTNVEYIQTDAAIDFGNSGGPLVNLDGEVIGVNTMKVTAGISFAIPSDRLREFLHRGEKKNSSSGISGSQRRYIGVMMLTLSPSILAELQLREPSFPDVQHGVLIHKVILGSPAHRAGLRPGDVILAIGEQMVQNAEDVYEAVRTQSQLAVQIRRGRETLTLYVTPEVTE
UniProt Q8TBC5: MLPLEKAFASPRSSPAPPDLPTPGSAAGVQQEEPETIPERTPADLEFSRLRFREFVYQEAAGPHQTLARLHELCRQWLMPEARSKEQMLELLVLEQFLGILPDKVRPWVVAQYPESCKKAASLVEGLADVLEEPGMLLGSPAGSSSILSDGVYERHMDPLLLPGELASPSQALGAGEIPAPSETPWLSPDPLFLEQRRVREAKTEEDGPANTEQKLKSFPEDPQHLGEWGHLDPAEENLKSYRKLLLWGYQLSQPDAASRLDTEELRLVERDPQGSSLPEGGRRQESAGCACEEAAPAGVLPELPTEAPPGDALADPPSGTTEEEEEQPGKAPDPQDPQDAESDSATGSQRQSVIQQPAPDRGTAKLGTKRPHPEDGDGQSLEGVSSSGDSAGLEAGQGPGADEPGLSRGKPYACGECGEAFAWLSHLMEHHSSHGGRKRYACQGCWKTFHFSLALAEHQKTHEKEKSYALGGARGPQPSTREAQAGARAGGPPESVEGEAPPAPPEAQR
UniProt Q6PIU2: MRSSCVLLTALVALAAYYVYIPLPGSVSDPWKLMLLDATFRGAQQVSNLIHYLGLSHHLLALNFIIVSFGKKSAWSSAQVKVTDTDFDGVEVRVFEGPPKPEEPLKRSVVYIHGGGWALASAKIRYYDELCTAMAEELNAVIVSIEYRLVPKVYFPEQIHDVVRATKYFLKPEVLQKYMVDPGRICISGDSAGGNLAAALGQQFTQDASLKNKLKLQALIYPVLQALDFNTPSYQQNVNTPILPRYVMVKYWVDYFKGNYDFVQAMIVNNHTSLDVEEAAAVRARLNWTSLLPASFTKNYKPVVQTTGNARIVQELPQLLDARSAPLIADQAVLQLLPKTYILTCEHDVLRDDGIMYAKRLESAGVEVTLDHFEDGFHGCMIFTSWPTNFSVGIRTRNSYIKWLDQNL

Compound: Nc1ncnc2c1ncn2[C@@H]1O[C@H](COP(=O)(O)OP(=O)(O)NP(=O)(O)O)[C@@H](O)[C@H]1O [adenylyl imidodiphosphate]
Experiment: NP40-soluble protein abundance relative to vehicle (solubility fold change) (ratio); higher = more soluble protein in presence of AMP-PNP
In short: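 Crude Jurkat lysate, prepared by Dounce homogenisation, was exposed to eight concentrations from 0.1 to 10 mM for 10 min at room temperature and then 3 min at 37 °C. Solubilisation used 0.8% NP40 with benzonase for 60 min at 4 °C, followed by ultracentrifugation and TMT labelling of the supernatant for LC-MS/MS. After vsn normalisation of intensities, each value is the fold change against the detergent-processed vehicle within each replicate, across three independent experiments.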

Target	NP40-soluble protein abundance (concentration: 1mM)	NP40-soluble protein abundance (concentration: 2mM)	NP40-soluble protein abundance (concentration: 4mM)	NP40-soluble protein abundance (concentration: 6mM)	NP40-soluble protein abundance (concentration: 8mM)	NP40-soluble protein abundance (concentration: 10mM)
A0A0U1RQG6|A0A0U1RQM7|A0A0U1RR06|C9JYH8 and related entries (UniProt Q9Y484)	0.986 ± 0.022	1.01 ± 0.014	0.995 ± 0.068	0.986 ± 0.018	0.981 ± 0.013	0.9495 ± 0.0073
A0A0A0MSK6|Q13017 and related entries (UniProt Q13017)	1.03 ± 0.037	1.03 ± 0.055	1.03 ± 0.065	1.02 ± 0.069	0.98 ± 0.087	1.02 ± 0.14
A0A087WYP2|Q8IZQ5 (UniProt Q8IZQ5)	1.01 ± 0.025	1.05 ± 0.066	1.06 ± 0.068	1.09 ± 0.038	1.11 ± 0.011	1.12 ± 0.081
A0A0A6YY95|Q9Y240 (UniProt Q9Y240)	0.97 ± 0.026	0.972 ± 0.029	1.01 ± 0.043	0.985 ± 0.027	1.018 ± 0.0027	1.04 ± 0.018
A0A0A6YYD5|A0A0B4J2E0|A0A5A8 and related entries (UniProt P01733+A0A5A8)	0.982 ± 0.023	0.984 ± 0.041	0.98 ± 0.058	0.98 ± 0.033	0.95 ± 0.021	0.971 ± 0.029
A0A0A0MR51|O60427 (UniProt O60427)	1.01 ± 0.034	0.994 ± 0.017	1.01 ± 0.038	0.981 ± 0.013	1.01 ± 0.029	1.02 ± 0.029
A0A087X011|E9PES4 and related entries (UniProt Q9Y496)	0.989 ± 0.019	0.988 ± 0.012	0.982 ± 0.033	0.9603 ± 0.009	0.951 ± 0.021	0.945 ± 0.031
A0A0C4DGB5|P20810-10|P20810-6 (UniProt P20810)	1.01 ± 0.025	1.07 ± 0.08	1 ± 0.034	1.002 ± 0.0065	0.978 ± 0.03	0.984 ± 0.057
A0A0A0MRE5|Q9ULH1 and related entries (UniProt Q9ULH1)	0.98 ± 0.022	1.005 ± 0.0039	0.999 ± 0.024	0.991 ± 0.022	0.969 ± 0.021	0.984 ± 0.039
A0A087X0N3|Q96MY1 (UniProt Q96MY1)	0.9635 ± 0.0067	0.986 ± 0.0099	0.954 ± 0.021	0.959 ± 0.0097	0.9487 ± 0.0075	0.928 ± 0.02
A0A0G2JH68 (UniProt O60610)	1.01 ± 0.028	1.03 ± 0.018	0.981 ± 0.016	0.979 ± 0.021	0.955 ± 0.015	0.9642 ± 0.0069
A0A0U1RRC9|P57075 and related entries (UniProt P57075)	0.992 ± 0.056	0.957 ± 0.056	1.01 ± 0.034	0.981 ± 0.029	0.996 ± 0.025	0.986 ± 0.024
A0A087X2I1|P62333 (UniProt P62333)	0.913 ± 0.05	0.853 ± 0.068	0.895 ± 0.1	0.899 ± 0.069	0.905 ± 0.079	0.895 ± 0.12
A0A087X0Q9|Q9BVL4 (UniProt Q9BVL4)	1.037 ± 0.0092	0.9994 ± 0.0072	1.04 ± 0.03	0.986 ± 0.017	0.99 ± 0.028	0.98 ± 0.024
A0A087WWP8|A0A0C4DGT8|Q5VWQ0 (UniProt Q5VWQ0)	1.08 ± 0.022	1.08 ± 0.032	1.15 ± 0.018	1.17 ± 0.035	1.16 ± 0.027	1.27 ± 0.057
A0A0A0MTR7|A0A0A0MTC1|Q63HN8 and related entries (UniProt Q63HN8)	0.955 ± 0.037	0.9 ± 0.082	0.9838 ± 0.0042	0.959 ± 0.03	1 ± 0.058	0.952 ± 0.065
A0A0B4J2F8|A6NFM0 and related entries (UniProt Q9GZM3+Q9H1A7+P52435+F6S314+E2QRJ6+A6NFM0)	0.961 ± 0.012	0.998 ± 0.042	0.939 ± 0.037	0.99 ± 0.031	1.03 ± 0.015	0.965 ± 0.12
A0A0D9SF44|A0A0R4J2E2|Q9Y3T6 (UniProt Q9Y3T6)	1.01 ± 0.042	1.01 ± 0.034	0.996 ± 0.035	1.05 ± 0.036	1.03 ± 0.063	1.04 ± 0.047
A0A0C4DGG9|F5GWX5 and related entries (UniProt Q14839)	0.999 ± 0.037	1.03 ± 0.021	1.01 ± 0.047	1.04 ± 0.046	1.04 ± 0.04	1.07 ± 0.063
A0A096LP10|Q9NP73-2|Q9NP73 (UniProt Q9NP73)	1.01 ± 0.02	1.023 ± 0.0072	0.997 ± 0.042	0.963 ± 0.029	0.985 ± 0.034	0.939 ± 0.054
A0A087WW84|Q14114 and related entries (UniProt Q14114)	1 ± 0.022	1 ± 0.016	0.9971 ± 0.0034	1 ± 0.014	0.974 ± 0.016	1 ± 0.031
A0A0A0MQX8|Q9NR56 and related entries (UniProt Q9NR56)	0.997 ± 0.04	1.07 ± 0.068	0.998 ± 0.065	1.04 ± 0.029	0.995 ± 0.026	1.04 ± 0.033
A0A087X1K6|H0YK05 and related entries (UniProt Q9Y2Y9)	0.998 ± 0.029	0.998 ± 0.03	0.971 ± 0.024	1.01 ± 0.016	0.991 ± 0.03	0.996 ± 0.0047
A0A0C4DG44|O43464 and related entries (UniProt O43464)	0.99 ± 0.026	0.933 ± 0.045	0.974 ± 0.031	0.957 ± 0.026	0.962 ± 0.036	0.962 ± 0.046
A0A0C4DG78|M0R3C6 and related entries (UniProt Q8TBC5)	1 ± 0.012	1.02 ± 0.03	0.984 ± 0.028	1.016 ± 0.003	1.002 ± 0.0089	1.02 ± 0.011
A0A0A0MTJ9|A0A0R4J2G3|Q6PIU2 and related entries (UniProt Q6PIU2)	1 ± 0.028	1.02 ± 0.032	0.999 ± 0.018	0.987 ± 0.013	0.979 ± 0.022	1.01 ± 0.019
A0A0G2JK44|A0A140T9E9|H0Y6K2 and related entries (UniProt P25440)	1.02 ± 0.029	1.07 ± 0.038	1.08 ± 0.021	1.11 ± 0.076	1.13 ± 0.049	1.16 ± 0.043
A0A0B4J1W0|F5GY88 and related entries (UniProt O75448)	0.996 ± 0.016	1.01 ± 0.028	1.06 ± 0.043	1.01 ± 0.059	1.01 ± 0.074	1.05 ± 0.12

Some of the entries above in a different format.
Target,NP40-soluble protein abundance (concentration: 1mM),NP40-soluble protein abundance (concentration: 2mM),NP40-soluble protein abundance (concentration: 4mM),NP40-soluble protein abundance (concentration: 6mM),NP40-soluble protein abundance (concentration: 8mM),NP40-soluble protein abundance (concentration: 10mM)
A0A096LP10|Q9NP73-2|Q9NP73 (UniProt Q9NP73),1.01 ± 0.02,1.023 ± 0.0072,0.997 ± 0.042,0.963 ± 0.029,0.985 ± 0.034,0.939 ± 0.054
A0A087WW84|Q14114 and related entries (UniProt Q14114),1 ± 0.022,1 ± 0.016,0.9971 ± 0.0034,1 ± 0.014,0.974 ± 0.016,1 ± 0.031
